The other results are listed elsewhere or left out.
biological target: OsWRKY34 (Oryza sativa, UniProt Q0JBA9 1-250); experiment: protein-binding microarray (RPBM); PBS, 2% BSA, 51.3 ng/ul salmon testes DNA, 50 uM zinc acetate, 200 nM TF, 25 C, 1 h; high values mean tight binding; conditions: protein: recombinant; tags: N-terminal polyhistidine and DsRed monomer fusion (pET32a); label: CyDye5-dUTP incorporated in the synthesized complementary strand; 3' TTTTT single-stranded linker to array surface; dsDNA, one strand shown
How it was run: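 Polyhistidine-tagged DsRed fusions of transcription factors, joined at the N-terminus, were expressed in E. coli BL21-CodonPlus and isolated on Ni–NTA. They were incubated at 200 nM for 1 h at 25 °C on a custom Agilent array, double-stranded and BSA-blocked, in PBS with 2% BSA, salmon testes DNA and 50 µM zinc acetate. The binding signal is per-feature fluorescence intensity (arbitrary units) read on an Axon 4000B scanner after washing.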

Amino acid sequences for entries named in this document (tags omitted).
UniProt Q0JBA9, entry or part of it: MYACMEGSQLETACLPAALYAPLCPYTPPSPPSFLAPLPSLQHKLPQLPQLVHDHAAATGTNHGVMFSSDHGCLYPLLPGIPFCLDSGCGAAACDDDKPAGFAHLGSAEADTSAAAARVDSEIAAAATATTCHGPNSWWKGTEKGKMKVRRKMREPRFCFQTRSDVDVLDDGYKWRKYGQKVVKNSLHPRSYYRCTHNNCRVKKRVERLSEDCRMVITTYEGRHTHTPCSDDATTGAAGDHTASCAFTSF

Sequence	binding signal
GAAATGGTGGTGGGGTGGTTGCCGTTGCCATCCACGACGACGGAGTCACCTAGTGCAG	13900 fluorescence intensity (a.u.)
AAATAATTTATACTCAATTAATCATGCGCTAATAGCTACTCGGAGTCACCTAGTGCAG	8180 fluorescence intensity (a.u.)
GCGGTTTGTATTTGCTGGCTGGTTTGGTTTCCACGCCCTCCGGAGTCACCTAGTGCAG	8170 fluorescence intensity (a.u.)
CTACATATAAGCACGGCTCATCACTTTGCCATCCAACAATCGGAGTCACCTAGTGCAG	12000 fluorescence intensity (a.u.)
GCTCTCAATTCAATCTCGCTTAATTCGATCGTCTTCTTCCCGGAGTCACCTAGTGCAG	9570 fluorescence intensity (a.u.)
CCAACATCTCGTTCTCACCTCTCACTCCTCTCGTCGTCTTCGGAGTCACCTAGTGCAG	9400 fluorescence intensity (a.u.)
GCTTGTTGCTCTCCTCGCGTGAGCTCTCTCCTCCTCTTCTCGGAGTCACCTAGTGCAG	10900 fluorescence intensity (a.u.)
GACAAATTAGTTGTTGACTTATCACACCCTACCCCATCTCCGGAGTCACCTAGTGCAG	8540 fluorescence intensity (a.u.)
CAACGTCCCATTGCCACCTTTTATACTTCTACCTTCTTCACGGAGTCACCTAGTGCAG	8940 fluorescence intensity (a.u.)
CATCCGCCTCTTCGGCACCACCCTCGTCTTCGTCGCCGACCGGAGTCACCTAGTGCAG	8140 fluorescence intensity (a.u.)
TTTGTCTCCTGCGCCTTCGATGAAATACTTACAAGTCGATCGGAGTCACCTAGTGCAG	9310 fluorescence intensity (a.u.)
ATTAAAATTTTCATACACCCATTTTATATGTTATCTCGAGCGGAGTCACCTAGTGCAG	8230 fluorescence intensity (a.u.)
AATTGGATTAATGTGATTTTTTTTCATGCAACATTACTATCGGAGTCACCTAGTGCAG	8900 fluorescence intensity (a.u.)
GGGGAAAGTTGGTAGTTTGGAAAAAAAGTTGAAAGTTTATCGGAGTCACCTAGTGCAG	8620 fluorescence intensity (a.u.)
ATTGGGTTGGGTTGAGCAATCGATTGCGTTGTTGTTCTTGCGGAGTCACCTAGTGCAG	11400 fluorescence intensity (a.u.)
ACTATCAAATGCATCTCTAATTTAGTTTTTTTTATTCGGGCGGAGTCACCTAGTGCAG	10000 fluorescence intensity (a.u.)
TATGTTTTTTCGTGCTCAACTTTGATTGTCCATCTTATTTCGGAGTCACCTAGTGCAG	8310 fluorescence intensity (a.u.)
TAGAGTTGATTTTGAGGGTTTTTTCATCGTAGCTTATTTTCGGAGTCACCTAGTGCAG	9410 fluorescence intensity (a.u.)
CGACCACCACCAAGCGAGCCCAGCAACAGTTTCACACTTTCGGAGTCACCTAGTGCAG	10100 fluorescence intensity (a.u.)
CTTGCCGGCCTCCACCGCTAATGTTTGTGCACACAGAAAACGGAGTCACCTAGTGCAG	8330 fluorescence intensity (a.u.)
AACATTTACGTAATTATAATTTATTTTGTTATGAGTTGTTCGGAGTCACCTAGTGCAG	8830 fluorescence intensity (a.u.)

Sequence	binding signal
GTAGTGCTAAAATTCTCTCATGTCTTCCTCTGCAACATATCGGAGTCACCTAGTGCAG	8390 fluorescence intensity (a.u.)
ACATTTTACTTACACTGTTTGGCCACTCGTCTTATTTAAACGGAGTCACCTAGTGCAG	9450 fluorescence intensity (a.u.)
TACTATTACTATTGGCAGTATGGCAGGCACGTATTTTTTTCGGAGTCACCTAGTGCAG	9260 fluorescence intensity (a.u.)
AGACGGACGGGAGGGGAGGGGTCCAAATTAAAACTCCAAACGGAGTCACCTAGTGCAG	10300 fluorescence intensity (a.u.)
ATGAATCCCCAAGAGCTCTGTATCTCTCCATCCTGCTAAACGGAGTCACCTAGTGCAG	8370 fluorescence intensity (a.u.)
ATCGTCCATTTCGTTTTCCCTCCAGTGTTTCAGGAATTTACGGAGTCACCTAGTGCAG	9860 fluorescence intensity (a.u.)
GAGCTCATTGTCTTCCCATCTCCCAACGCTATCATGGTGACGGAGTCACCTAGTGCAG	8230 fluorescence intensity (a.u.)
CCTTTTTCCCATGGTCACACTTGTTTCGTTTGGTCAAACACGGAGTCACCTAGTGCAG	11700 fluorescence intensity (a.u.)
ACCAGCCGCTTCGCTTCGCCTCGATTCCAACCCTAGCCCTCGGAGTCACCTAGTGCAG	11100 fluorescence intensity (a.u.)
GGTTTGTAGGATGTGACAATCCTAATTTTTTGTTTGGTTGCGGAGTCACCTAGTGCAG	10100 fluorescence intensity (a.u.)
ATACCTAGAAATTCCACAGTTTTCGCCATACCTGTTACCACGGAGTCACCTAGTGCAG	8820 fluorescence intensity (a.u.)
CATGCGCTGAATGCTCTAAGTTTCTTTTCTTGTCTAATACCGGAGTCACCTAGTGCAG	8110 fluorescence intensity (a.u.)
GCGGGCCCGATCTGAGGTGGTGGGAGGGAGGAAGGGATGTCGGAGTCACCTAGTGCAG	12700 fluorescence intensity (a.u.)
CCTCGCTATCGCCAGCCGCGCTCCGCACCAGCCGTCGCTGCGGAGTCACCTAGTGCAG	9080 fluorescence intensity (a.u.)
CGGGCGGGGTCGCGTGCAATGGTTTGTTTGTCAACCTCGGCGGAGTCACCTAGTGCAG	8800 fluorescence intensity (a.u.)
TGTTTGACACCGTTGACTTTTTAGTCGTGTTTGACCATTCCGGAGTCACCTAGTGCAG	24400 fluorescence intensity (a.u.)
GAGATGGATGTGTGGTGATGGCCTAGGATGTGGGATGGATCGGAGTCACCTAGTGCAG	8160 fluorescence intensity (a.u.)
CTCTTCACATTGTCCTGCATATATCTTTTATATTCCAAGACGGAGTCACCTAGTGCAG	9690 fluorescence intensity (a.u.)
CCTCGAGTTTATTCTTTCCGTATCCATTTTGTGCTCTCATCGGAGTCACCTAGTGCAG	9860 fluorescence intensity (a.u.)
AATGTTTGGGTTCGAATTTAGTGGGTGGGTTTGGAGTTTGCGGAGTCACCTAGTGCAG	12800 fluorescence intensity (a.u.)
CTTGCATCACTACCAGTGCCAATCACAACTTTGCTTTCATCGGAGTCACCTAGTGCAG	11000 fluorescence intensity (a.u.)

In another format: entries from further up.
Sequence,binding signal
ATGAATCCCCAAGAGCTCTGTATCTCTCCATCCTGCTAAACGGAGTCACCTAGTGCAG,8370 fluorescence intensity (a.u.)
ATCGTCCATTTCGTTTTCCCTCCAGTGTTTCAGGAATTTACGGAGTCACCTAGTGCAG,9860 fluorescence intensity (a.u.)
